Reference: PubChem BioAssay AID1508600 (Functional Genomics Laboratory (NCATS/FGL), 2020)
The campaign covered roughly 53,000 sequences. About 3,700 (7%) were called active.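 The calls were made as follows: active = gene knockdowns whose robust z-score for IL-1 alpha signal is at least 2 or at most -2, so actives lie on both sides; inactive = the rest.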 This is one part of the list.

experiment: Components of the Cytosolic LPS Sensing Pathway: Gene Identification via Genome-wide siRNA Screen; conditions: RAW264.7 macrophages, IL-1a HTRF, actives lie on both sides, screened at 100 nM (by protocol), cells primed 5 h with Pam3CSK4 first;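 also: robust z of the log signal after scaling to non-targeting control siRNA wells of the plate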
In short: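 Read-out: IL-1a HTRF on supernatant, divided by plate negative-control median ×100, log-transformed and converted to robust z-score. Cells were RAW264.7 given 100 nM siRNA, Pam3CSK4-primed 5 hours, then LipidA-transfected 24 hour.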

Sequence | z-score
GGACCUGUUUGAGCAGAGGTT against Eps8l2 | inactive: 0.539
GGCAGAGUGCUGACUUCAUTT against Coq8a | active: 3.86
GCUGCCAUUUCGCCAAUCUTT against Mfap4 | active: -2.65
GGAUGCAGCUAGAAUUUAATT against 4932438A13Rik | inactive: 1.04
GGAAUUGAAGGGUACUUAATT against Fam111a | inactive: -1.97
UGGCUAAACGCACCAAGAATT against Rpl37a | inactive: 1.11
GCUUCACCGAGUCAUCAUATT against Mdc1 | inactive: -0.786
GGAAGAAAAAAUCGAUCUGTT against Myl1 | inactive: 0.131
CGCAGUCGGUCAAGAACAATT against Snrpd2 | inactive: -1.91
GGACUAGCAGUAAUAAAAGTT against Zdhhc9 | active: -2.37
GGAAAUCUUUAUCUGACAGTT against Cbx3 | inactive: -1.88
GGCAGAGGCAAAAGAACAATT against Mrps5 | inactive: 1.78
GCGAUGUGCAUCGGAAUGCTT against Adprhl1 | inactive: 1.46
GGUCAAUACUCGAGUGCCATT against Gstm3 | inactive: -0.493
GGUGAUUCUCAUCUAAAUGTT against Mtdh | inactive: -0.389
GGUGCUGUUUAAAACACAGTT against Aurka | inactive: 1.25
CCUGACCAAUUGAGCUUCCTT against Rusc1 | inactive: -0.59
GGGCAAACCAGUUAGCAGATT against Atxn2 | inactive: 0.278
GGCAAUGUCUUUAAAAUACTT against Txndc8 | inactive: -0.724
CCUGAACGCAGCAACAAACTT against 1700049L16Rik | inactive: -1.31
GGACAUUGUUGUGACAGUGTT against Crppa | inactive: 0.0157
CGGGAGUCGGAGAUUUGAATT against Kcnj12 | inactive: -0.97

Given tab-delimited: part of the list above.
Sequence	z-score
GGCAAUGUCUUUAAAAUACTT against Txndc8	inactive: -0.724
CCUGAACGCAGCAACAAACTT against 1700049L16Rik	inactive: -1.31

(further entries)

Sequence | z-score
GCACAAAUUAAAUGUUAGGTT against Zhx2 | inactive: 0.235
GGAGGAUGGGUGUGAAUCUTT against Pycr2 | inactive: -1.01
GGAGUCCUGGUGCAAACUCTT against Cnih2 | inactive: 1.05
GGAGUACAUGGUACACGUUTT against Fut8 | inactive: 1.52
GGCUCAAAACCACACCACUTT against Olfr477 | active: -2.75
GGUUAAAAUUUGGAAUCUGTT against Dcaf13 | inactive: -0.469
GGCAUUGACCCUUCUUGGATT against Stam2 | inactive: -0.395
GGCUUUCGGUCUCUUAGUCTT against Zfp811 | inactive: -0.875
GCAUUUGAAUCGACUACAGTT against Vti1b | inactive: 0.691
GGAUCUGUUACUCUGAUACTT against Pias4 | inactive: 0.847
GCACUGAACCAAUUUGCCCTT against Dsg1c | inactive: 0.776
CCAGUGGCCCAUUUUUUGUTT against Slc18a1 | inactive: 0.85
GGUACUGCUGUUGUCAAUGTT against Prdx3 | inactive: -0.235
CGUGUUGAAAAACUCACAATT against Vmn1r30 | inactive: -1.07
GGUGGAGCGAAUCAAGGAGTT against Nedd8 | inactive: 0.136
GGAGCAGUCCUAAUGAUACTT against Phf6 | inactive: 0.514
GCCAACUAGAAAACAACUGTT against Pdzd11 | inactive: 1.6
GGUGAGCAUCGUGUUCAUCTT against Galnt18 | inactive: 0.712
GGAGUUAAGAAAGAAAACATT against Cir1 | inactive: -1.9
GGAACACUGGAAAAAUGUUTT against Ldhc | inactive: 0.176
GGGUAAUACUCCUAAGAAATT against Fbxo48 | inactive: 0.00449
GGGAUUGUUUCAAGACAAUTT against Septin2 | inactive: -0.131

Sequence | z-score
GGAUUGUUGGGAAUUCUUUTT against Zfp60 | inactive: 0.748
CCCAUUAGAUGCUGAAUAUTT against Stmn1 | inactive: 0.139
GGAGGUCCAUGUCCUGCUUTT against Mesp2 | inactive: 0.336
GGAACCUAGGGUUUUCAGCTT against Nkapd1 | inactive: 1.25
GCUUUGAUCGAUUCUCUCGTT against Syt11 | inactive: 0.366
GGUACUGUACUGAUGACAUTT against Dhx32 | inactive: -0.769
GGCUUUGUAGAAAAUUCAUTT against Polr2a | active: -2.15
GGAAAGAAAGACUAGUAAATT against Cpne1 | inactive: 0.815
GCAGGAAGGUCAUAUCUUATT against Olfr324 | inactive: -0.258
GCAUUGUGAGACUAACGUGTT against Dusp7 | inactive: 1.08
GGAAGACAAAUGAGUUAUGTT against Sema3b | inactive: 0.359
GGGAAUAGCAAACUUAUCUTT against Nfil3 | inactive: -0.688
GGAGGUUUAAAUUUGAUGUTT against Adcy9 | inactive: 0.401
GGAACUGCUAAGAGAGAAATT against Ccdc91 | inactive: 1.19
GGUCAUGAGAGCAUACUGCTT against Ankrd10 | inactive: -1.53
GGAUUUCAACAUGCCUCUGTT against Pdlim5 | inactive: 0.777
GGUGAUGUUCUAACCCUGCTT against Trex1 | inactive: -0.0124
GGUCGUUAUCACCAGGCUATT against Rpl26 | inactive: -0.878
GGAGCUUUUGGACCACUUGTT against Tmod1 | inactive: -0.892
GGCGACUUGUGCCUAACUUTT against Bex4 | inactive: -0.948
GGAGGUCUUUUCUAAGUACTT against Pde6c | inactive: 0.625
GGAGAAGGCUGCUGAUAUUTT against Phf8 | inactive: 0.393

Sequence | z-score
GGUGCUUUAUUAGGUAUUCTT against Atp6v1g3 | inactive: -1.26
UAUCCACAGUAUGGUGGCUTT against Tas2r140 | inactive: -0.644
GGGAAUUCAUGAUCAAGAUTT against Abca3 | inactive: -0.578
GGUGCUAUUGUGGAUCAACTT against Zdhhc17 | inactive: 0.804
GGGUGAUUUCUACCUUCAATT against D630003M21Rik | inactive: -0.496
GGCUAUGCACUACUCAUUGTT against Galk1 | inactive: -0.607
GCUGAUUGCUGAACGACUUTT against Tchp | inactive: -1.28
GCUGUACAGUCAAUACCUGTT against Abhd17a | inactive: 1.2
CCACUGCACCACAACUCAATT against Zfp36l2 | inactive: -0.753
CCAGAAGUGAUCGCCUCUUTT against Zfp300 | inactive: 1.16
CGCGAACUGCUCUAUAGAGTT against Hmgcl | inactive: -0.00934
CCAGUAUGUACCACUAAGUTT against Xkr8 | inactive: 0.0914
GCUUCUGAUGGACAUUCACTT against Uhrf2 | inactive: 0.449
GAGGAAGUCCACGAAACUATT against Prl3d1 | inactive: 0.143
GGGCCAAAUUUGAAUCCCUTT against Rcan1 | active: -2.09
GCCUGAGUGAUAGUGAUUUTT against Fam122b | inactive: 0.83
GGCACUGUGGUGUAAAUCCTT against Nnt | inactive: -1.53
GGUUCUGAAUGGUUAUUUCTT against Itih5 | inactive: -0.387
GGAUUUCAACAGACAGGUGTT against Paip2b | inactive: 0.877
GCUAAUAACUGUUCACAUATT against Magi1 | inactive: 1.97
GUCCCUCUGUUCGUCACGUTT against Olfr1449 | inactive: -0.434
CCAAAUUUGAGAGCAUAAGTT against Armh4 | inactive: -0.714

Quoted from the listing:
z-score, GAGGAAGUCCACGAAACUATT against Prl3d1 is entered as inactive: 0.143
z-score, GCUGUACAGUCAAUACCUGTT against Abhd17a is entered as inactive: 1.2
z-score, GGUGCUAUUGUGGAUCAACTT against Zdhhc17 is entered as inactive: 0.804
z-score, GGCUAUGCACUACUCAUUGTT against Galk1 is entered as inactive: -0.607

Going on with the list:

Sequence | z-score
CGGCAAGAUGUCUACUAACTT against Wdtc1 | inactive: 0.655
GGGAAAGUGUGUAAUAAAUTT against Egflam | inactive: -0.774
GCUGAGUAGACUUCGUCUGTT against Kifc2 | inactive: 1.05
CCUGUACAGUUGGAAACAUTT against Snrpd1 | active: -2.02
GGUGCAGAGAAGUGUAACATT against Slc25a21 | inactive: -1.6
GGACUACAUGGAUGCCAUGTT against Prkrip1 | inactive: 0.482
GCUCAUAGGUUUUGAGUAATT against Wt1 | inactive: 0.982
GGUGAAGAAGUGACACCUGTT against Tppp3 | inactive: -0.777
GGACCUUUCUCAACUACUATT against Edem2 | inactive: -0.706
GCCAAAAGGAGGACAUACCTT against Mylk3 | inactive: 1.08
GGAAUUUAUUCACCCAGACTT against Sirt2 | inactive: -1.51
GGUCUUACGUUGGAUUUUUTT against Extl3 | inactive: -0.716
GUCUGAACCCAUCUUCUAUTT against Hcrt | inactive: -0.801
CCAAUGGAAAAAGUGCACATT against Olfr1061 | inactive: -0.789
CCUUAAUCCAAACAAGUCUTT against Ncl | inactive: 1.08
CCCGGAAGACACUAAAACUTT against Gmeb1 | inactive: -0.746
GCAUAUCAACGCAGUGUCATT against Tssk5 | inactive: -1.26
GGCUGAAAGCCCAGAUCUUTT against Celf5 | inactive: -1.8
GGUGGAUACAGAAAGUCAUTT against F2 | inactive: -0.839
